# Data reported in the supplement of paper PMC10032668.
# Amino acid sequences for entries named in this document (tags omitted).
# AP2A2, O94973, UniProt O94973, whole entry: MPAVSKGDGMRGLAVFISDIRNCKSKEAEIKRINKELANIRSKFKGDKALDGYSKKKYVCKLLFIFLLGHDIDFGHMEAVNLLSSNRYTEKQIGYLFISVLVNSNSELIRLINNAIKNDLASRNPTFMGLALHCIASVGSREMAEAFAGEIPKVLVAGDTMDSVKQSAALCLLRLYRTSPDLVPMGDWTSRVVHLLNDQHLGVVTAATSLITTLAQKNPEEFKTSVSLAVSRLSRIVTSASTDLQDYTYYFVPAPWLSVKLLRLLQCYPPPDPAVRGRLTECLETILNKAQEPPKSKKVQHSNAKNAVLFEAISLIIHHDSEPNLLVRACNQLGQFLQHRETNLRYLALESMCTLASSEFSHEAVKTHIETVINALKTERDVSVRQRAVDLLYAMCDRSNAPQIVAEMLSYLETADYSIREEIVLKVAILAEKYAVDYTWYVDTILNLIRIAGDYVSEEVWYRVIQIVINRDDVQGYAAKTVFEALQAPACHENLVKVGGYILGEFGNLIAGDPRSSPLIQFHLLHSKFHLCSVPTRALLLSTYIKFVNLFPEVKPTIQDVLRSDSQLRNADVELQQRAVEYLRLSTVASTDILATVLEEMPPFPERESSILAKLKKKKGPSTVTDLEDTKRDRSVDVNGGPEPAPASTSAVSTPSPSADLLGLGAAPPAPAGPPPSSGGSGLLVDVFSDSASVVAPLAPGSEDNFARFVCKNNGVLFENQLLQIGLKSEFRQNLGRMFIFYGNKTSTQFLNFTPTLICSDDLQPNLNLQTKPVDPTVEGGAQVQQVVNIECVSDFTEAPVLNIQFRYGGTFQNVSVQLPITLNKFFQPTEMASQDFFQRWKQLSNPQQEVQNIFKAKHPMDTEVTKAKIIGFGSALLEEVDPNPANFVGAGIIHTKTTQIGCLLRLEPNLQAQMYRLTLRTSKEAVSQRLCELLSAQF
# CAMP, P49913, UniProt P49913, whole entry: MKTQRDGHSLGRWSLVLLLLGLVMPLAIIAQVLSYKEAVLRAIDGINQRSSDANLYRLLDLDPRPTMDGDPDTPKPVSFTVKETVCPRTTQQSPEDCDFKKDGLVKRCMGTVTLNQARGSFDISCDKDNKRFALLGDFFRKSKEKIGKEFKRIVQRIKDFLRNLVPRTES
# CCT5, P48643, UniProt P48643, whole entry: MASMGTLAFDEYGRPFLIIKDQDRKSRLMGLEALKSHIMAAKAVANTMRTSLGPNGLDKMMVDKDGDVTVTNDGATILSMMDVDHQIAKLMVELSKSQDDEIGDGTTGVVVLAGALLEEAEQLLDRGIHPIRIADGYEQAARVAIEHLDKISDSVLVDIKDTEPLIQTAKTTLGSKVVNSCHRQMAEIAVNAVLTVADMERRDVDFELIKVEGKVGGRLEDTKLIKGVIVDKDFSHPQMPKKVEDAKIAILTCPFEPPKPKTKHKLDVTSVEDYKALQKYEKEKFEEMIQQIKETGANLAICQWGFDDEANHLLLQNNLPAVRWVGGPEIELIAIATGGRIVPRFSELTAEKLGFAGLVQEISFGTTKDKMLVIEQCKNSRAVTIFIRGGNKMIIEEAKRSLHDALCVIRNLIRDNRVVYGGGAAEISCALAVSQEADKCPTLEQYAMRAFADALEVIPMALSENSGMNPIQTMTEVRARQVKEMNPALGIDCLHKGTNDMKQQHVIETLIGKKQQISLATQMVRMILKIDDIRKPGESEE
# IGHA1, P01876, UniProt P01876, whole entry: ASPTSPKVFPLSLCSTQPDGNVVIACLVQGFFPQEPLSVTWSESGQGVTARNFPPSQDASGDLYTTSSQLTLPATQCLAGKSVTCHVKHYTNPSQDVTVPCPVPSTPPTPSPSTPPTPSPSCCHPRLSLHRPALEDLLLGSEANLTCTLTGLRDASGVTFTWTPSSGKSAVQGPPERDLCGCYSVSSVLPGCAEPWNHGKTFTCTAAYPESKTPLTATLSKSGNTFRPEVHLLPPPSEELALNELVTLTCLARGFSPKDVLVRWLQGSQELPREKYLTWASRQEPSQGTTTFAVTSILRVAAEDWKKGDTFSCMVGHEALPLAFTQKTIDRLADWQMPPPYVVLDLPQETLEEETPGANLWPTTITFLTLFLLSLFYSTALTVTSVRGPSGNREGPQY
# INTS2, Q9H0H0, UniProt Q9H0H0, whole entry: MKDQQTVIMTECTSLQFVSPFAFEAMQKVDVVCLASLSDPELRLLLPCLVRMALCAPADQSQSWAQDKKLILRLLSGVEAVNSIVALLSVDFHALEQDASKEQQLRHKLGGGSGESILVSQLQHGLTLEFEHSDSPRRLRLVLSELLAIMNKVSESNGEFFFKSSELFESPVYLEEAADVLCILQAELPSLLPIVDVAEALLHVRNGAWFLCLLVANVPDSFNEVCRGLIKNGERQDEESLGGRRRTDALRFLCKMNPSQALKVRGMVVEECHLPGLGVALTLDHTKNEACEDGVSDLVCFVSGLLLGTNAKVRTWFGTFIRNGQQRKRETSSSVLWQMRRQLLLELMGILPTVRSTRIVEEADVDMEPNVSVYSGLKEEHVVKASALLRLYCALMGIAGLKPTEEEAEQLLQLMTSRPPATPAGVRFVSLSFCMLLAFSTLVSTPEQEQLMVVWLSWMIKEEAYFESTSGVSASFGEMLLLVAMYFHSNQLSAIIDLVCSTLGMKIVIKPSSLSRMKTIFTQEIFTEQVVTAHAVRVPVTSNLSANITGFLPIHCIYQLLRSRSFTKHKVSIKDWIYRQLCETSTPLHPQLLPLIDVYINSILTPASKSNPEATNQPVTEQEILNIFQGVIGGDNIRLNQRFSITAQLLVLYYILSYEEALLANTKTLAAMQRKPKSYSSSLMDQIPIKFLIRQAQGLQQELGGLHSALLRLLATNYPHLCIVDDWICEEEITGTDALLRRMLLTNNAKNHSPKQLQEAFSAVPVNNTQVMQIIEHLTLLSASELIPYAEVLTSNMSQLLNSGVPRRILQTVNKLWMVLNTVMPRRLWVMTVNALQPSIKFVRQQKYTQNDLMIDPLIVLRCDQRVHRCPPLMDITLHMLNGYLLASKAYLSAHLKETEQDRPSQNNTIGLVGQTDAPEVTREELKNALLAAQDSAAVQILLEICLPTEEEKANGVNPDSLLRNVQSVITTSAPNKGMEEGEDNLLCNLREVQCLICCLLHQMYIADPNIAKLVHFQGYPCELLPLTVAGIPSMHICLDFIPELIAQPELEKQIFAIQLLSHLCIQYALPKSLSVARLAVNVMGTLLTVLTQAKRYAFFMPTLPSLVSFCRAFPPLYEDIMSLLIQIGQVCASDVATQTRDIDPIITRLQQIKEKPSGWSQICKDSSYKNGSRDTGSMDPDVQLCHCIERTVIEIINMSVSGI
# MED12, Q93074, UniProt Q93074, whole entry: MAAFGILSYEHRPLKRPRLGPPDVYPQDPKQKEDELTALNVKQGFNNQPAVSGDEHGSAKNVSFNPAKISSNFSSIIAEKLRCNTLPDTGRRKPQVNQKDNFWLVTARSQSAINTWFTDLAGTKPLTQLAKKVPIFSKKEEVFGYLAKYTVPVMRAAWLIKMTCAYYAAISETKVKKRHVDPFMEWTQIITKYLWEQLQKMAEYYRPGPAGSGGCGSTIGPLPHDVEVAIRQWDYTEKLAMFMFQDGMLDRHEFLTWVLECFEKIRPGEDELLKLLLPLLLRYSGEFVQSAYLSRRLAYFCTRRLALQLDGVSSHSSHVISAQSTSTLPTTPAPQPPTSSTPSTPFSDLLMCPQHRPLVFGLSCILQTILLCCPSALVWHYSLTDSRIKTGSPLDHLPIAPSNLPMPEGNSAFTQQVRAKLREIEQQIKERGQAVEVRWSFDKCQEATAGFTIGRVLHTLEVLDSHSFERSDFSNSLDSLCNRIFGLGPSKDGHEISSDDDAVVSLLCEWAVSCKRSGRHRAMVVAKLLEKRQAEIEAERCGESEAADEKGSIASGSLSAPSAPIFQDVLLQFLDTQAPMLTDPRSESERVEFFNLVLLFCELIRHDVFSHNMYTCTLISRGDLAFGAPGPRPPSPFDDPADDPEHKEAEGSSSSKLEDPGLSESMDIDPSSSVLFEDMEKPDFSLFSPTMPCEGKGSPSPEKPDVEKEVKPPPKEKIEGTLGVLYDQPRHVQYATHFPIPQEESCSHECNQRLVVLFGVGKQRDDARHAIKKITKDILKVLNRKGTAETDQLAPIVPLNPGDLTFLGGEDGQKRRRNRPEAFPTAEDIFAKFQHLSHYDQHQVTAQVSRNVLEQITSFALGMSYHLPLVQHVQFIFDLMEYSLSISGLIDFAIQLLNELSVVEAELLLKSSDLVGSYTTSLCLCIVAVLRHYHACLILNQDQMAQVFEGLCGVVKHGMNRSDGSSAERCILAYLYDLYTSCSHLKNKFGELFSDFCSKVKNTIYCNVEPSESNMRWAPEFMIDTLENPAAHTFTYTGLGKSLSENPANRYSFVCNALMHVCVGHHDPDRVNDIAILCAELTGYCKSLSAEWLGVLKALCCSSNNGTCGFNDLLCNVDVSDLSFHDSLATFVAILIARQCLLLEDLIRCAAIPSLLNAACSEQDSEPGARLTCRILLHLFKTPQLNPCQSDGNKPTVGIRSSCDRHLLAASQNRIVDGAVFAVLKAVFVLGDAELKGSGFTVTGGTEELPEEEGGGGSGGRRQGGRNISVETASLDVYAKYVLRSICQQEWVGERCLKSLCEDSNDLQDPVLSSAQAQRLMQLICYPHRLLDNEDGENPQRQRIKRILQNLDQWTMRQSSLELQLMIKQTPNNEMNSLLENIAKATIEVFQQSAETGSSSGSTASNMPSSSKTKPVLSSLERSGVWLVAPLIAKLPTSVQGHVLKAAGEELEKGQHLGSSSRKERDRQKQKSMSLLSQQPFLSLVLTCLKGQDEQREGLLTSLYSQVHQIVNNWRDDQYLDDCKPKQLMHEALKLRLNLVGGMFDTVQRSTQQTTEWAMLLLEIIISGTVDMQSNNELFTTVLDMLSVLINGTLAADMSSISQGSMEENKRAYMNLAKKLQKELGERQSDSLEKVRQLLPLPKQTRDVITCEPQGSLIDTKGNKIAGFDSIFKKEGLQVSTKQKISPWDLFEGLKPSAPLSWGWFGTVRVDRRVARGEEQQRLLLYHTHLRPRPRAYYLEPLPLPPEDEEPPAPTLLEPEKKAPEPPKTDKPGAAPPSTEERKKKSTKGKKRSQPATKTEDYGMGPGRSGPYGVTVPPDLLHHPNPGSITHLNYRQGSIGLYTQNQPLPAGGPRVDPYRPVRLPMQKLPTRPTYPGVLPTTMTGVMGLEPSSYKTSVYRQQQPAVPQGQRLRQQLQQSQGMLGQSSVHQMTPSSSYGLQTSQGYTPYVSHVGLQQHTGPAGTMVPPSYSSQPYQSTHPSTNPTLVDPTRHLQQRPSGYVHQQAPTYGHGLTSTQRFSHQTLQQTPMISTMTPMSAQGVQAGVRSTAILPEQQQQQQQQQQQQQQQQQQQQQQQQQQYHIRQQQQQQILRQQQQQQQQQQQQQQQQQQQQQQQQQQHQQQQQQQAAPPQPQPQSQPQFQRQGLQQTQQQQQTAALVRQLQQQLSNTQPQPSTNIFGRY
# NDUFS1, P28331, UniProt P28331, whole entry: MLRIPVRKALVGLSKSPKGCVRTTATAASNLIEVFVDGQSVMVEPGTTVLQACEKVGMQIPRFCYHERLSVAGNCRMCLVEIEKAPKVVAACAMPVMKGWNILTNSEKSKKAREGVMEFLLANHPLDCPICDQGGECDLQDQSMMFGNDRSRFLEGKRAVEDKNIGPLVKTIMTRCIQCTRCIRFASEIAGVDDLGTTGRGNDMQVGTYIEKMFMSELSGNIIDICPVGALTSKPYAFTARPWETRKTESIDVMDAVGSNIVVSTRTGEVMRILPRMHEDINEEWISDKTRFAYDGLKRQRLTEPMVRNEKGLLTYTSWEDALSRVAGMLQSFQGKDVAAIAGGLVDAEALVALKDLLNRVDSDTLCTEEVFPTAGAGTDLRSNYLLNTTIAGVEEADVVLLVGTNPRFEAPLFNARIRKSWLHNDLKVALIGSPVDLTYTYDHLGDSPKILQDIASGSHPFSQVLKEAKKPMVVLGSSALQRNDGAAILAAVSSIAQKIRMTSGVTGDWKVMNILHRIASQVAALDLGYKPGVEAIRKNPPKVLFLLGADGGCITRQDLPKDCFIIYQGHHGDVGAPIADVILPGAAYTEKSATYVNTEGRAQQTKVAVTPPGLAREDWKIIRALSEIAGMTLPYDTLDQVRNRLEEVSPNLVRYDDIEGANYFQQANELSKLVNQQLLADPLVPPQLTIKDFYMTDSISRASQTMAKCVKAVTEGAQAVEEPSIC
# SET, Q01105, UniProt Q01105, whole entry: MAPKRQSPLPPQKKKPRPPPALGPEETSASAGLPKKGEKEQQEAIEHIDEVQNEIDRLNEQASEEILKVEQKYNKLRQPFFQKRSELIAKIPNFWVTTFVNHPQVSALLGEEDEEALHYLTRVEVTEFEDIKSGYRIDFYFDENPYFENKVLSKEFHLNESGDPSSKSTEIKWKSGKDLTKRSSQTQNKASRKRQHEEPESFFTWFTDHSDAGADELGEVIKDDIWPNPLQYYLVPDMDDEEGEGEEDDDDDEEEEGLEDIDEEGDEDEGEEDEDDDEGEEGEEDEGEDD
# The other results are listed elsewhere or left out. Only hits are listed; about a third recur on repeated control peptides.
# Assays:
# Experiment in all cases: PRISMA enrichment of interactor (LFQ) in peptide spot vs all other peptide spots (log2 fold change); higher = stronger / more specific binding of the interactor to the peptide
# ABCE1, P61221 = molecular target: ABCE1, P61221
# Description: (§1)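 PRISMA: 15-aa overlapping tiles (offset 8 aa) of 60 microproteins, plus SOS1/GLUT1 control peptides, were spot-synthesized on cellulose membranes in triplicate. Membranes were incubated with benzonase-treated HEK293T lysate, and bound proteins were identified by LC-MS/MS with LFQ. Enrichment is the log2 fold change of each protein in one spot versus all other spots. Only interactors passing the significance cutoff are listed.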
# ABHD14B, Q96IU4 = molecular target: ABHD14B, Q96IU4
# Description: as §1
# AGK, Q53H12 = molecular target: AGK, Q53H12
# Description: as §1
# ALKBH5, Q6P6C2 = molecular target: ALKBH5, Q6P6C2
# Description: as §1
# ANXA5, P08758 = molecular target: ANXA5, P08758
# Description: as §1
# AP2A2, O94973 = molecular target: AP2A2, O94973
# Description: as §1
# ATXN10, Q9UBB4 = molecular target: ATXN10, Q9UBB4
# Description: as §1
# CAMP, P49913 = molecular target: CAMP, P49913
# Description: as §1
# CBSL = molecular target: CBSL
# Description: as §1
# CCT5, P48643 = molecular target: CCT5, P48643
# Description: as §1
# CDC5L, Q99459 = molecular target: CDC5L, Q99459
# Description: as §1
# COQ5, Q5HYK3 = molecular target: COQ5, Q5HYK3
# Description: as §1
# CPSF7, Q8N684 = molecular target: CPSF7, Q8N684
# Description: as §1
# CSTF1, Q05048 = molecular target: CSTF1, Q05048
# Description: as §1
# DDX42, Q86XP3 = molecular target: DDX42, Q86XP3
# Description: as §1
# DNAJB12, Q9NXW2 = molecular target: DNAJB12, Q9NXW2
# Description: as §1
# DPM1, O60762 = molecular target: DPM1, O60762
# Description: as §1
# HOMER3, Q9NSC5 = molecular target: HOMER3, Q9NSC5
# Description: as §1
# IGF2BP2, Q9Y6M1 = molecular target: IGF2BP2, Q9Y6M1
# Description: as §1
# IGHA1, P01876 = molecular target: IGHA1, P01876
# Description: as §1
# INTS2, Q9H0H0 = molecular target: INTS2, Q9H0H0
# Description: as §1
# LARP4B, Q92615 = molecular target: LARP4B, Q92615
# Description: as §1
# MCRIP2, Q9BUT9 = molecular target: MCRIP2, Q9BUT9
# Description: as §1
# MED12, Q93074 = molecular target: MED12, Q93074
# Description: as §1
# NAE1, Q13564 = molecular target: NAE1, Q13564
# Description: as §1
# NAMPT, P43490 = molecular target: NAMPT, P43490
# Description: as §1
# NDUFS1, P28331 = molecular target: NDUFS1, P28331
# Description: as §1
# NOM1, Q5C9Z4 = molecular target: NOM1, Q5C9Z4
# Description: as §1
# NUP98, P52948 = molecular target: NUP98, P52948
# Description: as §1
# PDK3, Q15120 = molecular target: PDK3, Q15120
# Description: as §1
# PFKL, P17858 = molecular target: PFKL, P17858
# Description: as §1
# PNO1, Q9NRX1 = molecular target: PNO1, Q9NRX1
# Description: as §1
# RBM15, Q96T37 = molecular target: RBM15, Q96T37
# Description: as §1
# SEC16A, O15027 = molecular target: SEC16A, O15027
# Description: as §1
# SET, Q01105 = molecular target: SET, Q01105
# Description: as §1
# SLC25A1, P53007 = molecular target: SLC25A1, P53007
# Description: as §1
# SLIRP, Q9GZT3 = molecular target: SLIRP, Q9GZT3
# Description: as §1
# SNX9, Q9Y5X1 = molecular target: SNX9, Q9Y5X1
# Description: as §1
# [1] = substrate: SON, P18583
# Description: as §1
# SPART, Q8N0X7 = molecular target: SPART, Q8N0X7
# Description: as §1
# TBCD, Q9BTW9 = molecular target: TBCD, Q9BTW9
# Description: as §1
# TUBAL3, A6NHL2 = molecular target: TUBAL3, A6NHL2
# Description: as §1
# UBE2S, Q16763 = molecular target: UBE2S, Q16763
# Description: as §1
# VARS, P26640 = molecular target: VARS, P26640
# Description: as §1
# XPO7, Q9UIA9 = molecular target: XPO7, Q9UIA9
# Description: as §1
# YTHDC1, Q96MU7 = molecular target: YTHDC1, Q96MU7
# Description: as §1
# ZC3H11A, O75152 = molecular target: ZC3H11A, O75152
# Description: as §1
# ZNF317, Q96PQ6 = molecular target: ZNF317, Q96PQ6
# Description: as §1
binder,measurement,setting,value
AARAAGGSSPPGRPT [RAB12],PRISMA enrichment of interactor (log2),"ABCE1, P61221",5.65
same,PRISMA enrichment of interactor (log2),"ABHD14B, Q96IU4",6.13
same,PRISMA enrichment of interactor (log2),"AGK, Q53H12",5.77
same,PRISMA enrichment of interactor (log2),"ALKBH5, Q6P6C2",6.58
same,PRISMA enrichment of interactor (log2),"ANXA5, P08758",5.41
same,PRISMA enrichment of interactor (log2),"AP2A2, O94973",7.47
same,PRISMA enrichment of interactor (log2),"ATXN10, Q9UBB4",5.55
same,PRISMA enrichment of interactor (log2),"CAMP, P49913",7.71
same,PRISMA enrichment of interactor (log2),CBSL,5.27
same,PRISMA enrichment of interactor (log2),"CCT5, P48643",4.8
same,PRISMA enrichment of interactor (log2),"CDC5L, Q99459",4.87
same,PRISMA enrichment of interactor (log2),"COQ5, Q5HYK3",3.81
same,PRISMA enrichment of interactor (log2),"CPSF7, Q8N684",4.27
same,PRISMA enrichment of interactor (log2),"CSTF1, Q05048",4.88
same,PRISMA enrichment of interactor (log2),"DDX42, Q86XP3",12.2
same,PRISMA enrichment of interactor (log2),"DNAJB12, Q9NXW2",6.98
same,PRISMA enrichment of interactor (log2),"DPM1, O60762",5.47
same,PRISMA enrichment of interactor (log2),"HOMER3, Q9NSC5",5.71
same,PRISMA enrichment of interactor (log2),"IGF2BP2, Q9Y6M1",6.25
same,PRISMA enrichment of interactor (log2),"IGHA1, P01876",4.08
same,PRISMA enrichment of interactor (log2),"INTS2, Q9H0H0",5.69
same,PRISMA enrichment of interactor (log2),"LARP4B, Q92615",7.77
same,PRISMA enrichment of interactor (log2),"MCRIP2, Q9BUT9",8.74
same,PRISMA enrichment of interactor (log2),"MED12, Q93074",5.45
same,PRISMA enrichment of interactor (log2),"NAE1, Q13564",4.05
same,PRISMA enrichment of interactor (log2),"NAMPT, P43490",6.62
same,PRISMA enrichment of interactor (log2),"NDUFS1, P28331",8.24
same,PRISMA enrichment of interactor (log2),"NOM1, Q5C9Z4",6.92
same,PRISMA enrichment of interactor (log2),"NUP98, P52948",5.69
same,PRISMA enrichment of interactor (log2),"PDK3, Q15120",5.19
same,PRISMA enrichment of interactor (log2),"PFKL, P17858",11
same,PRISMA enrichment of interactor (log2),"PNO1, Q9NRX1",7.26
same,PRISMA enrichment of interactor (log2),"RBM15, Q96T37",5.36
same,PRISMA enrichment of interactor (log2),"SEC16A, O15027",9.28
same,PRISMA enrichment of interactor (log2),"SET, Q01105",5.27
same,PRISMA enrichment of interactor (log2),"SLC25A1, P53007",13.7
same,PRISMA enrichment of interactor (log2),"SLIRP, Q9GZT3",4.89
same,PRISMA enrichment of interactor (log2),"SNX9, Q9Y5X1",3.99
same,PRISMA enrichment of interactor (log2),[1],4.29
same,PRISMA enrichment of interactor (log2),"SPART, Q8N0X7",4.22
same,PRISMA enrichment of interactor (log2),"TBCD, Q9BTW9",10.3
same,PRISMA enrichment of interactor (log2),"TUBAL3, A6NHL2",3.95
same,PRISMA enrichment of interactor (log2),"UBE2S, Q16763",7.48
same,PRISMA enrichment of interactor (log2),"VARS, P26640",5.37
same,PRISMA enrichment of interactor (log2),"XPO7, Q9UIA9",6.38
same,PRISMA enrichment of interactor (log2),"YTHDC1, Q96MU7",8.99
same,PRISMA enrichment of interactor (log2),"ZC3H11A, O75152",8.33
same,PRISMA enrichment of interactor (log2),"ZNF317, Q96PQ6",4.47

# Ten neighbouring entries from above, quoted:
binder,measurement,setting,value
AARAAGGSSPPGRPT [RAB12],PRISMA enrichment of interactor (log2),"ANXA5, P08758",5.41
same,PRISMA enrichment of interactor (log2),"AP2A2, O94973",7.47
same,PRISMA enrichment of interactor (log2),"ATXN10, Q9UBB4",5.55
same,PRISMA enrichment of interactor (log2),"CAMP, P49913",7.71
same,PRISMA enrichment of interactor (log2),CBSL,5.27
same,PRISMA enrichment of interactor (log2),"CCT5, P48643",4.8
same,PRISMA enrichment of interactor (log2),"CDC5L, Q99459",4.87
same,PRISMA enrichment of interactor (log2),"COQ5, Q5HYK3",3.81
same,PRISMA enrichment of interactor (log2),"CPSF7, Q8N684",4.27
same,PRISMA enrichment of interactor (log2),"CSTF1, Q05048",4.88
